Laboratory results: patent US20220169726A1
Results are given in words; binding and its absence hold for the method and conditions named. Some results given as binding are weak or reduced against the parent protein; the word gives no strength.

Amino acid sequences for entries named in this document (tags omitted). A change or cut given only in a name is not applied to a line headed by its entry. Chains listed by the source or under a name are the forms on record and can include a tag or linker.
recombinant human SIRPα variant 2 protein (P78324, form named): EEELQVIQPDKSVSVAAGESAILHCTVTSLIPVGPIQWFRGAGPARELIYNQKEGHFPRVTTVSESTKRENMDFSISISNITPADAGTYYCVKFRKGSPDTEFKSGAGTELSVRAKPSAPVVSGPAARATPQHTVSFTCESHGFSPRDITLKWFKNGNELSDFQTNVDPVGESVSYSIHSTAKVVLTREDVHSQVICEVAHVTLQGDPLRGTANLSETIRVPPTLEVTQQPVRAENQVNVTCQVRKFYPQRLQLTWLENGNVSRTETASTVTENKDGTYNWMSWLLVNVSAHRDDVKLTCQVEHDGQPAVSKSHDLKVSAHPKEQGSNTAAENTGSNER

Target: recombinant human SIRPα variant 2 protein (human) (UniProt P78324)
Experiment: ELISA, antigen coated at 0.5 ug/ml, anti-mouse Fc-HRP detection

B1: 300A6A6 (antibody, V domains shown)
VH: QVQLQQSGTELVKPGSSVKISCKASGYTFTSNYIHWIRQQPGNGLEWIGWIYPGDGDTNYNQKFNGKATLTADKSSSTAYMQLSSLTSEDYAVYFCAINYGGIWFAYWGQGTLVTVSS
VL: DIQMTQSPSSMSASLGDRVTITCQASQDIGNKLIWFQQKPGKSPRLMIHYVTNLPGGVPLRFSGSRSGSDYSLTISSLESEDMADYYCLQYKQNPLTFGSGTKLEIK
binding: binds
